Publication PMC7862700
Only a part is listed here, and it is no random draw. At the low end of the ranking the order means little.

Molecular target: SPI1 (UniProt P17947)
Test: DAPPL (digital affinity profiling via proximity ligation, sequencing)
Conditions: 10 mM Tris-HCl pH 7.5, 50 mM NaCl, 1 mM DTT, 4% glycerol, room temperature, 30 min; GST-TFs on glutathione beads, 16-mer random dsDNA library, 0.1% …; high values mean tight binding; double strand, one strand shown; scale: fold enrichment (6-mer frequency, TF over GST control)

Sequence | binding signal
AACTGT | 0.954
ACCATT | 1.16
TAAAGC | 1.05
TCTCAT | 1.37
TATCTT | 1.3
TGTCAA | 1
TCTTCC | 2.46
GTACAG | 0.954
GCCACA | 0.894
GCACAC | 0.927
AACTCA | 1.25
CCGCGG | 0.917
TATAAA | 1.26
TTGGCT | 0.89
GGGAAA | 1.05
ACGAGC | 0.987
GCACGA | 0.986
ATAAGT | 1
GTGTCC | 1.08

Sequence | binding signal
CTACGG | 1.24
TCGAAG | 0.904
TAAATT | 1.22
TAACCA | 1.06
GCCCTG | 0.865
CGAATC | 0.907
GTCGAC | 1.08
CAACCG | 0.982
GCCGGA | 0.935
ATATTT | 1.43
CAGCGC | 0.912
CCATAC | 1.18
TTGAGA | 0.821
ACCACA | 0.991
CTTGAA | 1.13
GACTTG | 0.8
GACCGC | 0.881
GATTGC | 0.941
GCAGAA | 0.999

2 records drawn at random from those above:
Sequence | binding signal
GTCGAC | 1.08
GCCGGA | 0.935
